Record: PubChem BioAssay AID652243 (Drosophila RNAi Screening Center, 2013)
Test: 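Fly genes required for human androgen receptor driven transcription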 (primary screen). Cell system: Drosophila S2R+ cells. Reagent: long dsRNA against Drosophila genes. Timing: 72 h (48 h, then 24 h hormone). Challenge: synthetic androgen R1881 at 10 nM for 24 h. Detection: 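Per-well raw luminescence of the androgen-driven firefly reporter and of the Renilla control, two replicates each, without normalisation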. Scale: firefly reporter light: higher = more light from androgen-responsive reporter; Renilla control light: higher = more constitutive control signal (cell number, transfection). Hit rule: 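Hit when the log firefly-to-Renilla ratio dropped or increased by a fixed fold versus the mean of GFP or LacZ controls across duplicate plates; lowering cut given as 1.5 and as 3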. Meaning of the calls: active = hit: reporter lowered or raised; inactive = no hit.
The screen tested about 24,000 reagents; shown is a random part of those that have a named target and a result. Of all reagents, 246 (1%) are marked active. 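Plates not normalised; calls are printed but the firefly/Renilla ratio behind them is not deposited; fold cut for lowering reported inconsistently.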 Raw values vary from plate to plate and are shown uncorrected. Unmarked entries are inactive. Names joined by + are all predicted targets of the reagent. Not given: the amount of reagent.

{"target gene": "CG5104", "DRSC id": "DRSC11765", "firefly reporter light, replicate 1": 3.61e5, "firefly reporter light, replicate 2": 4.25e5, "Renilla control light, replicate 1": 3.24e6, "Renilla control light, replicate 2": 3.75e6}
{"target gene": "CheB42a", "DRSC id": "DRSC22881", "firefly reporter light, replicate 1": 5.76e5, "firefly reporter light, replicate 2": 8.43e5, "Renilla control light, replicate 1": 2.09e6, "Renilla control light, replicate 2": 3.15e6}
{"target gene": "CanB2", "DRSC id": "DRSC07355", "firefly reporter light, replicate 1": 3.48e5, "firefly reporter light, replicate 2": 4.35e5, "Renilla control light, replicate 1": 2.42e6, "Renilla control light, replicate 2": 4.36e6}
{"target gene": "CanB2", "DRSC id": "DRSC27440", "firefly reporter light, replicate 1": 2.46e5, "firefly reporter light, replicate 2": 2.50e5, "Renilla control light, replicate 1": 7.26e5, "Renilla control light, replicate 2": 9.34e5}
{"target gene": "CG15080", "DRSC id": "DRSC06511", "firefly reporter light, replicate 1": 1.13e5, "firefly reporter light, replicate 2": 1.08e5, "Renilla control light, replicate 1": 1.50e6, "Renilla control light, replicate 2": 1.32e6}
{"target gene": "CG15080", "DRSC id": "DRSC29374", "firefly reporter light, replicate 1": 3.96e5, "firefly reporter light, replicate 2": 4.31e5, "Renilla control light, replicate 1": 9.94e5, "Renilla control light, replicate 2": 9.94e5}
{"target gene": "Dh31-R", "DRSC id": "DRSC06669", "firefly reporter light, replicate 1": 2.05e5, "firefly reporter light, replicate 2": 2.24e5, "Renilla control light, replicate 1": 1.26e6, "Renilla control light, replicate 2": 1.43e6}
{"target gene": "Dh31-R", "DRSC id": "DRSC23417", "firefly reporter light, replicate 1": 7.38e5, "firefly reporter light, replicate 2": 7.47e5, "Renilla control light, replicate 1": 4.57e5, "Renilla control light, replicate 2": 6.37e5}
{"target gene": "Uqcc1 + CG9948", "DRSC id": "DRSC09690", "firefly reporter light, replicate 1": 1.90e5, "firefly reporter light, replicate 2": 1.62e5, "Renilla control light, replicate 1": 1.70e6, "Renilla control light, replicate 2": 1.46e6}
{"target gene": "CG14669", "DRSC id": "DRSC12255", "firefly reporter light, replicate 1": 54299, "firefly reporter light, replicate 2": 65914, "Renilla control light, replicate 1": 1.08e6, "Renilla control light, replicate 2": 1.21e6}
{"target gene": "CG14669", "DRSC id": "DRSC26823", "firefly reporter light, replicate 1": 3.93e5, "firefly reporter light, replicate 2": 4.16e5, "Renilla control light, replicate 1": 4.64e5, "Renilla control light, replicate 2": 3.08e5}
{"target gene": "CG32191", "DRSC id": "DRSC10522", "firefly reporter light, replicate 1": 1.40e5, "firefly reporter light, replicate 2": 1.27e5, "Renilla control light, replicate 1": 2.10e6, "Renilla control light, replicate 2": 2.27e6}
{"target gene": "nxf4", "DRSC id": "DRSC12548", "firefly reporter light, replicate 1": 1.03e5, "firefly reporter light, replicate 2": 1.55e5, "Renilla control light, replicate 1": 3.20e6, "Renilla control light, replicate 2": 2.47e6}
{"target gene": "mRpS6", "DRSC id": "DRSC08470", "firefly reporter light, replicate 1": 1.16e5, "firefly reporter light, replicate 2": 1.18e5, "Renilla control light, replicate 1": 1.28e6, "Renilla control light, replicate 2": 1.69e6}
{"target gene": "mRpS6", "DRSC id": "DRSC29280", "firefly reporter light, replicate 1": 4.49e5, "firefly reporter light, replicate 2": 3.86e5, "Renilla control light, replicate 1": 1.18e6, "Renilla control light, replicate 2": 1.17e6}

Part of the list above, reformatted:
| target gene | DRSC id | firefly reporter light, replicate 1 | firefly reporter light, replicate 2 | Renilla control light, replicate 1 | Renilla control light, replicate 2 |
| --- | --- | --- | --- | --- | --- |
| CanB2 | DRSC07355 | 3.48e5 | 4.35e5 | 2.42e6 | 4.36e6 |
| CanB2 | DRSC27440 | 2.46e5 | 2.50e5 | 7.26e5 | 9.34e5 |
